Measurements reported in PubChem BioAssay AID504793 (Drosophila RNAi Screening Center, 2011)
Aim: 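Genes required for cells to halt at G2/M after double-strand DNA breaks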 (primary screen). System: Drosophila S2R+ cells. Knock-down reagent: long dsRNA against Drosophila genes, about 0.25 µg dsRNA per well. Duration: 4 days of dsRNA, then 4 hours of drug before read-out. Challenge: doxorubicin 0.5 µM for 4 hours to cause double-strand breaks, in cells also given a low, harmless dose of dsRNA against nbs to sensitise the assay. Detection: 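Per-well count of mitotic cells stained for phospho-histone H3 after doxorubicin exposure, used as mitotic index; counts are raw and not normalised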. Direction: mitotic cells: higher = more cells in mitosis, weaker G2 arrest. Call rule: 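a call needs confirmation in secondary tests, with other dsRNAs and a check of mitotic timing without damage, not just a high primary count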. Calls: active = confirmed in follow-up tests; inactive = not confirmed.
The screen tested about 23,000 reagents; below is a random part of those with a known target gene and a result. In the full data, 62 (0.27%) are marked active. 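Calls come from follow-up tests whose scores are not deposited, so confirmed genes may have low counts here; counts are not normalised per plate.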 The raw values are shown without normalisation. A plus sign joins genes that one reagent is predicted to hit. Reagent sequences are not shown.

Gene | amplicon | mitotic cells, replicate 1 | mitotic cells, replicate 2 | outcome
CG18649 | DRSC10334 | 4 | – | inactive
AANATL6 (Arylalkylamine N-acetyltransferase-like 6) | DRSC06773 | 11 | – | inactive
KLHL18 (Kelch like family member 18) | DRSC15496 | 8 | – | inactive
KLHL18 (Kelch like family member 18) | DRSC26629 | 7 | – | inactive
CG5131 | DRSC02817 | 3 | – | inactive
Dnaaf4 (Dynein axonemal assembly factor 4) | DRSC02405 | 4 | – | inactive
kermit | DRSC06074 | 7 | – | inactive
kermit | DRSC25874 | 8 | – | inactive
CG12481 | DRSC19461 | 9 | – | inactive
Scgalpha (Sarcoglycan alpha) | DRSC03076 | 4 | – | inactive
Scgalpha (Sarcoglycan alpha) | DRSC29625 | 5 | – | inactive
CG31406 | DRSC12777 | 12 | – | inactive
CG31406 | DRSC26169 | 6 | – | inactive
Sgf11 (SAGA associated factor 11kDa) | DRSC09987 | 6 | – | inactive
PGAP1 (Post-GPI attachment to proteins 1) | DRSC18286 | 9 | – | inactive
PGAP1 (Post-GPI attachment to proteins 1) | DRSC28989 | 3 | – | inactive
CG14000 + bchs | DRSC02333 | 4 | – | inactive
RpL24 (Ribosomal protein L24) | DRSC03185 | 4 | – | inactive
RpL24 (Ribosomal protein L24) | DRSC28724 | 10 | – | inactive
Vps16A (Vacuolar protein sorting 16A) | DRSC16422 | 6 | – | inactive
Polr1F (RNA polymerase I subunit F) | DRSC02278 | 11 | – | inactive
Polr1F (RNA polymerase I subunit F) | DRSC28047 | 3 | – | inactive
CG14252 | DRSC14747 | 11 | – | inactive
Sec20 (Secretory 20) | DRSC12295 | 2 | – | inactive
Sec20 (Secretory 20) | DRSC29886 | 4 | – | inactive
CG12835 (retired record) | DRSC06181 | 5 | – | inactive
CG12835 (retired record) | DRSC27647 | 5 | – | inactive
PH4alphaSG1 (prolyl-4-hydroxylase-alpha SG1) | DRSC15080 | 12 | – | inactive
CG10555 | DRSC23202 | 8 | – | inactive
CG10555 | DRSC27738 | 12 | – | inactive
CG30192 | DRSC03977 | 5 | – | inactive
Dscam4 (Down syndrome cell adhesion molecule 4) | DRSC08913 | 5 | – | inactive
Dscam4 (Down syndrome cell adhesion molecule 4) | DRSC10031 | 4 | – | inactive
Dscam4 (Down syndrome cell adhesion molecule 4) | DRSC10329 | 6 | – | inactive
Dscam4 (Down syndrome cell adhesion molecule 4) | DRSC10765 | 8 | – | inactive
Dscam4 (Down syndrome cell adhesion molecule 4) | DRSC27460 | 5 | – | inactive
CG33062 | DRSC22195 | 17 | – | inactive
CG33062 | DRSC27501 | 4 | – | inactive
Tie (Tie-like receptor tyrosine kinase) | DRSC08104 | 10 | – | inactive
Tie (Tie-like receptor tyrosine kinase) | DRSC08702 | 4 | – | inactive
ttv (tout-velu) | DRSC07709 | 2 | – | inactive
ttv (tout-velu) | DRSC26088 | 10 | – | inactive
Mmp1 (Matrix metalloproteinase 1) | DRSC04493 | 9 | – | inactive
Jon99Fii (Jonah 99Fii) | DRSC15430 | 10 | – | inactive
Mrgn1 (Mahogunin ring finger 1) | DRSC20223 | 13 | – | inactive
Dlip1 (Dorsal interacting protein 1) | DRSC18460 | 5 | – | inactive
Pex10 (Peroxin 10) | DRSC08599 | 22 | – | inactive
Pex10 (Peroxin 10) | DRSC22021 | 7 | – | inactive
ppk28 (pickpocket 28) | DRSC19919 | 7 | – | inactive
CG31952 | DRSC00428 | 2 | – | inactive
CG31952 | DRSC21997 | 4 | – | inactive
CG31952 | DRSC26442 | 16 | – | inactive
GstT2 (Glutathione S transferase T2) | DRSC06244 | 8 | – | inactive
CG32835 (retired record) | DRSC22693 | 12 | – | inactive
CG32835 (retired record) | DRSC26198 | 4 | – | inactive

6 consecutive entries already listed, for reference:
Gene | amplicon | mitotic cells, replicate 1 | mitotic cells, replicate 2 | outcome
Dscam4 (Down syndrome cell adhesion molecule 4) | DRSC08913 | 5 | – | inactive
Dscam4 (Down syndrome cell adhesion molecule 4) | DRSC10031 | 4 | – | inactive
Dscam4 (Down syndrome cell adhesion molecule 4) | DRSC10329 | 6 | – | inactive
Dscam4 (Down syndrome cell adhesion molecule 4) | DRSC10765 | 8 | – | inactive
Dscam4 (Down syndrome cell adhesion molecule 4) | DRSC27460 | 5 | – | inactive
CG33062 | DRSC22195 | 17 | – | inactive

Continued.
Gene | amplicon | mitotic cells, replicate 1 | mitotic cells, replicate 2 | outcome
E5 | DRSC13000 | 16 | – | inactive
E5 | DRSC23157 | 8 | – | inactive
E5 | DRSC28326 | 4 | – | inactive
Eig71Ea (Ecdysone-induced gene 71Ea) | DRSC11148 | 2 | – | inactive
CG42374 + Mettl5 | DRSC11085 | 3 | – | inactive
Nep5 (Neprilysin 5) | DRSC16004 | 4 | – | inactive
tomboy40 | DRSC04918 | 7 | – | inactive
tomboy40 | DRSC28442 | 13 | – | inactive
Cyt-c-p (Cytochrome c proximal) | DRSC03310 | 6 | – | inactive
Mys45A (Mystery 45A) | DRSC07067 | 5 | – | inactive
Mys45A (Mystery 45A) | DRSC25852 | 4 | – | inactive
CG31380 | DRSC15688 | 18 | – | inactive
dan (distal antenna) | DRSC14406 | 7 | – | inactive
dan (distal antenna) | DRSC29653 | 6 | – | inactive
CG13474 | DRSC10018 | 5 | – | inactive
His-Psi:CR31616 + His-Psi:CR31615 | DRSC03760 | 8 | – | inactive
Shawn + Tyler | DRSC19564 | 9 | – | inactive
Shawn + Tyler | DRSC19565 | 13 | – | inactive
CG11893 | DRSC14429 | 6 | – | inactive
CG11893 | DRSC29725 | 7 | – | inactive
CR33328 (retired record) | DRSC22954 | 11 | – | inactive
CR33328 (retired record) | DRSC27200 | 8 | – | inactive
CG3085 | DRSC04335 | 3 | – | inactive
HP1c (Heterochromatin Protein 1c) | DRSC16166 | 10 | 13 | inactive
HP1c (Heterochromatin Protein 1c) | DRSC28423 | 3 | – | inactive
AlaRS-m (Alanyl-tRNA synthetase, mitochondrial) | DRSC09660 | 7 | – | inactive
AlaRS-m (Alanyl-tRNA synthetase, mitochondrial) | DRSC28250 | 11 | – | inactive
CG9967 | DRSC00742 | 8 | 8 | inactive
CG9967 | DRSC25344 | 4 | – | inactive
ppk9 (pickpocket 9) | DRSC04134 | 5 | – | inactive
ppk9 (pickpocket 9) | DRSC04135 | 9 | – | inactive
CG4151 | DRSC18351 | 10 | – | inactive
ifc (infertile crescent) | DRSC03549 | 3 | – | inactive
TBC1d7 + mRpS24 | DRSC14611 | 5 | – | inactive
CG10918 | DRSC20472 | 6 | – | inactive
CG10918 | DRSC24162 | 5 | – | inactive
CG1812 | DRSC20557 | 4 | – | inactive
CG1812 | DRSC26769 | 7 | – | inactive
Sur-8 | DRSC15794 | 11 | – | inactive
Obp83ef (Odorant-binding protein 83ef) | DRSC12268 | 10 | – | inactive
Obp83ef (Odorant-binding protein 83ef) | DRSC30027 | 8 | – | inactive
CG5225 | DRSC24962 | 15 | – | inactive
Alg7 | DRSC02833 | 3 | – | inactive
Alg7 | DRSC02834 | 6 | – | inactive
CG13436 | DRSC06396 | 11 | – | inactive
Nubpl (NUBP iron-sulfur cluster assembly factor, mitochondrial) | DRSC03725 | 6 | – | inactive
Ctl1 (Choline transporter-like 1) | DRSC08303 | 6 | – | inactive
Miga (Mitoguardin) | DRSC17821 | 21 | – | inactive
dop (drop out) | DRSC10655 | 4 | – | inactive
dop (drop out) | DRSC29525 | 1 | – | inactive
CG6329 | DRSC06976 | 2 | – | inactive
Stip1 (Stress induced phosphoprotein 1) | DRSC00756 | 4 | – | inactive
Sf3b3 (Splicing factor 3b subunit 3) | DRSC08370 | 5 | – | inactive
CG11404 | DRSC11656 | 6 | – | inactive
CG11404 | DRSC27005 | 5 | – | inactive
Act88F (Actin 88F) | DRSC14105 | 7 | – | inactive
Act88F (Actin 88F) | DRSC25009 | 2 | – | inactive
sordd1 | DRSC28653 | – | – | inactive
SrpRalpha (Signal recognition particle receptor alpha) | DRSC20251 | 9 | – | inactive
RpS15 (Ribosomal protein S15) | DRSC07151 | 6 | – | inactive
RpS15 (Ribosomal protein S15) | DRSC23462 | 2 | – | inactive
Pburs (Partner of Bursicon) | DRSC02483 | 2 | – | inactive
CG17193 | DRSC15187 | 9 | – | inactive
Or92a (Odorant receptor 92a) | DRSC16771 | 5 | – | inactive
CR11023 (pseudo) | DRSC00302 | 4 | – | inactive
CR11023 (pseudo) | DRSC28266 | 6 | – | inactive
CG18063 | DRSC01968 | 8 | – | inactive
fd59A (forkhead domain 59A) | DRSC04685 | 3 | – | inactive
fd59A (forkhead domain 59A) | DRSC25524 | 7 | – | inactive
Cp16 (Chorion protein 16) | DRSC11119 | 8 | – | inactive
Cp16 (Chorion protein 16) | DRSC25549 | 4 | – | inactive
Syx4 (Syntaxin 4) | DRSC18586 | 15 | – | inactive
Syx4 (Syntaxin 4) | DRSC27586 | 7 | – | inactive
Send1 (Spermathecal endopeptidase 1) | DRSC00482 | 5 | – | inactive
Send1 (Spermathecal endopeptidase 1) | DRSC27719 | 8 | – | inactive
CG31207 | DRSC21886 | 9 | – | inactive
Cpr62Bb (Cuticular protein 62Bb) | DRSC08404 | 9 | – | inactive
Cpr62Bb (Cuticular protein 62Bb) | DRSC27624 | 3 | – | inactive
RnpS1 (RNA-binding protein S1) | DRSC15154 | 4 | – | inactive
Alp12 (Alkaline phosphatase 12) | DRSC02515 | 5 | – | inactive
CG9973 (retired record) | DRSC08646 | 4 | – | inactive
CG9973 (retired record) | DRSC26922 | 5 | – | inactive
CG11570 | DRSC09844 | 5 | – | inactive
pk (prickle) | DRSC06178 | 2 | – | inactive
pk (prickle) | DRSC07664 | 4 | – | inactive
pk (prickle) | DRSC24979 | 3 | – | inactive
